The other results are listed elsewhere or left out.

The chains behind the UniProt entries cited, without tags or fusion partners. Where a name states a change or a piece, a line headed by the entry shows the natural chain unless it says otherwise.
UniProt Q99700, whole entry, looked up: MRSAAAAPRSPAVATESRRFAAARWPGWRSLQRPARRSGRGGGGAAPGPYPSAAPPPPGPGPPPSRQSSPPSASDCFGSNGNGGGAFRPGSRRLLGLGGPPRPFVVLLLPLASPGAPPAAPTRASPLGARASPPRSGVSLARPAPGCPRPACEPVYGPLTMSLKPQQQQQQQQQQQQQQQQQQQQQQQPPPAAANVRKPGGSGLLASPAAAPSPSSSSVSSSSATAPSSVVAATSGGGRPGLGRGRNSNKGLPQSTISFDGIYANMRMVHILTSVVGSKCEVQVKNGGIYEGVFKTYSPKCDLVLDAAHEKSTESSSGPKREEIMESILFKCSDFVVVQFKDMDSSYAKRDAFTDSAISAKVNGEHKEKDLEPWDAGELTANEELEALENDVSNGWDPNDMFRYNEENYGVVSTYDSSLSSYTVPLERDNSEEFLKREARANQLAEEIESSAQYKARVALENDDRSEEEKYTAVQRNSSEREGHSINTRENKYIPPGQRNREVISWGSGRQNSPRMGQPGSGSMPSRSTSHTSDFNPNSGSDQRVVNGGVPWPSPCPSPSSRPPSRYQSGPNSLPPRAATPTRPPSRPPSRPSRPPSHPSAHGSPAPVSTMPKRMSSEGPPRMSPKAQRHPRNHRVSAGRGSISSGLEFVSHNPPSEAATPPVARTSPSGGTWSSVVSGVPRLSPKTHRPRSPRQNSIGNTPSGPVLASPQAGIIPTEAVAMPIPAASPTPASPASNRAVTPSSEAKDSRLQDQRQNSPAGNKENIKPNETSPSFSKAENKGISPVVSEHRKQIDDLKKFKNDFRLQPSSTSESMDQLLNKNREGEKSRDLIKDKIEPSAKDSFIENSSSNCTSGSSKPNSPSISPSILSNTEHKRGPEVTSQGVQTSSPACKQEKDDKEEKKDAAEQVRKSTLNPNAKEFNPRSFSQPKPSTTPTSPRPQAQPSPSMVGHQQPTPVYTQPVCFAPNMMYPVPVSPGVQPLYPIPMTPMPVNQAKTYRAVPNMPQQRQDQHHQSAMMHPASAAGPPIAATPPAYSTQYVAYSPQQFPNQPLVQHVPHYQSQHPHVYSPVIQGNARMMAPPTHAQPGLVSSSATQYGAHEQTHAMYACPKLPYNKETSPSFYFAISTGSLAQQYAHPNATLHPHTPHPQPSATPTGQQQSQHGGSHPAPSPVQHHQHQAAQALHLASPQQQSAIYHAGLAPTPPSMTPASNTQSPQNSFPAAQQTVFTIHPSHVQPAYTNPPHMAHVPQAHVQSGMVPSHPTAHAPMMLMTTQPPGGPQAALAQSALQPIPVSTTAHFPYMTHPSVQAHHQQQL
UniProt P56945: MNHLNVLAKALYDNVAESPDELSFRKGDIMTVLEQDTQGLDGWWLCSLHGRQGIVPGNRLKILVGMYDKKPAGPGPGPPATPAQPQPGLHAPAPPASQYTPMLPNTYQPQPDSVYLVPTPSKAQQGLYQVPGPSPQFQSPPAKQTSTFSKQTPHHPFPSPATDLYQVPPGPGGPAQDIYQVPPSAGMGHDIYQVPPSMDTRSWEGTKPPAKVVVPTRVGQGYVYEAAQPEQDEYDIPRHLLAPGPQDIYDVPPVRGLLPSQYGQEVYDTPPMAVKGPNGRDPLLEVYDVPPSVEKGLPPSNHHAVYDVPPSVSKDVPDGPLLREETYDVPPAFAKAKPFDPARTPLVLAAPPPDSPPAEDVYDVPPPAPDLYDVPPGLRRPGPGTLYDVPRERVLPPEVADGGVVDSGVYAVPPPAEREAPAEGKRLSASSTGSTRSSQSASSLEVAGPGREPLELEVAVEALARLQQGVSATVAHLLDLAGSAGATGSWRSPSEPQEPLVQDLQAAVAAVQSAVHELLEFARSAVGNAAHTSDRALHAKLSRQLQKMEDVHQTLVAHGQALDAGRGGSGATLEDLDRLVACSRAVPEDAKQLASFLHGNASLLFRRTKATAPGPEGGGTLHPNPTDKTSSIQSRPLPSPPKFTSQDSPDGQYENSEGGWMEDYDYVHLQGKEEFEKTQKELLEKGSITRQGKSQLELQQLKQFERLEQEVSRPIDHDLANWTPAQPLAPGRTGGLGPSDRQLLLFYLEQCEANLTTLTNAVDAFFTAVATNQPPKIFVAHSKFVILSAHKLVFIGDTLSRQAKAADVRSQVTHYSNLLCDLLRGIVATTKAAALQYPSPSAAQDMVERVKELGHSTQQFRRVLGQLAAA
UniProt Q07812, whole entry, looked up: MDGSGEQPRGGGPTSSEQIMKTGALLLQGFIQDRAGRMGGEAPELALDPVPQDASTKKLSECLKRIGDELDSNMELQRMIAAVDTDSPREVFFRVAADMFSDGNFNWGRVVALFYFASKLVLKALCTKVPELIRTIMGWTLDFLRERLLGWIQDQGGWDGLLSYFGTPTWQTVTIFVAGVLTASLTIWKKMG
UniProt Q86WA6: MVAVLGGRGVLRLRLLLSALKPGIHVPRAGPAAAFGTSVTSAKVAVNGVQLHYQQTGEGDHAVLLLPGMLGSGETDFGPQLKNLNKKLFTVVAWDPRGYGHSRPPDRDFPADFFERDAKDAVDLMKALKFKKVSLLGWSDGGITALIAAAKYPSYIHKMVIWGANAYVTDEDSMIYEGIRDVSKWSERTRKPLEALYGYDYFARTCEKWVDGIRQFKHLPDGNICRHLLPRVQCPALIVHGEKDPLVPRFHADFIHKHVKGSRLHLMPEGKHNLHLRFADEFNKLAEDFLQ
UniProt Q9UHR4: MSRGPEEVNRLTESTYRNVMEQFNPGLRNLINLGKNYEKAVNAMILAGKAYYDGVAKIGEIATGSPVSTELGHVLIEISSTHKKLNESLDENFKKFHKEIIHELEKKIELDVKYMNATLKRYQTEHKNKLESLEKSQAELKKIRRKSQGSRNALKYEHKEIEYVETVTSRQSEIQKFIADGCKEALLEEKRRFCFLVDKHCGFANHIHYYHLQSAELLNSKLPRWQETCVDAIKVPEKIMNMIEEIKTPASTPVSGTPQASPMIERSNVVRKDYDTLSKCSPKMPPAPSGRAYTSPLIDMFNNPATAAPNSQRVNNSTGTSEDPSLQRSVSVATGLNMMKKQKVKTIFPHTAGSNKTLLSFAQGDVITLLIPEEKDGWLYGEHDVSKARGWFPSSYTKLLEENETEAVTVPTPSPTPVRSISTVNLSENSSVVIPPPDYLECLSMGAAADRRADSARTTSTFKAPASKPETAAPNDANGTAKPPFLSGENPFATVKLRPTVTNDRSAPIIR
UniProt Q9P287, whole entry, looked up: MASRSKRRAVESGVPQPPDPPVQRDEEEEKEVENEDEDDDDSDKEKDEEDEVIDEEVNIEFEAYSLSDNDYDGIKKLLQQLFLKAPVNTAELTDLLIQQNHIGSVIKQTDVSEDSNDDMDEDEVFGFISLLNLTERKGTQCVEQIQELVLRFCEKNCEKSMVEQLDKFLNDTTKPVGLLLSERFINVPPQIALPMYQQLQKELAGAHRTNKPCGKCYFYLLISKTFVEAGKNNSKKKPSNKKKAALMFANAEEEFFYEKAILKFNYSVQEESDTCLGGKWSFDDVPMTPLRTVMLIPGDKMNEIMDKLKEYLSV
UniProt Q9NUP1: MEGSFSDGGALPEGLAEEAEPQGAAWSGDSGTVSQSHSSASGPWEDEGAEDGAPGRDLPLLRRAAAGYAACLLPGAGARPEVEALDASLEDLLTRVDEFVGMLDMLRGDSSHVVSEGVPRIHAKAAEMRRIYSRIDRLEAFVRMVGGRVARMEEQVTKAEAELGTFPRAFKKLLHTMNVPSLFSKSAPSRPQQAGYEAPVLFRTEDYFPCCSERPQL
UniProt Q14137: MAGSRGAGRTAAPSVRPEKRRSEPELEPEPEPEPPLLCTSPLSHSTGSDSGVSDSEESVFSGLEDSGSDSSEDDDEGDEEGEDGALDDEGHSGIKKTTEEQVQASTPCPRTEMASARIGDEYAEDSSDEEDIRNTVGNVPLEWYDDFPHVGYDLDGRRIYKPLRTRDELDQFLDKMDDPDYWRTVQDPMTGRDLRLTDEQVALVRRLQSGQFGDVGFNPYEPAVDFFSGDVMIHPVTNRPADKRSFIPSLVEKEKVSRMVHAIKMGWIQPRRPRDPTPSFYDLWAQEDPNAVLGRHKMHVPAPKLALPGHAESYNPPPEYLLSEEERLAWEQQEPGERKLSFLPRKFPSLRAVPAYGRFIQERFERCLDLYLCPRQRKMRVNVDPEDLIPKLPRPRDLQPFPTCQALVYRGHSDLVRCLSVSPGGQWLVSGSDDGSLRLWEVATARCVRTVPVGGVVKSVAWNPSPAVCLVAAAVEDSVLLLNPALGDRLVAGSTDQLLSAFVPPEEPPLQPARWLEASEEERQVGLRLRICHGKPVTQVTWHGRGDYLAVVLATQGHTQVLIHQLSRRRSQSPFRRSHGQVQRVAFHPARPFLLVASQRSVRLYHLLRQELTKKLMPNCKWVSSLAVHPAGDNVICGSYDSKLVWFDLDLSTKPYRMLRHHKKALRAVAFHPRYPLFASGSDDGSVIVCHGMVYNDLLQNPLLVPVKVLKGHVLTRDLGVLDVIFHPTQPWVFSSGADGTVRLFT
UniProt O60512: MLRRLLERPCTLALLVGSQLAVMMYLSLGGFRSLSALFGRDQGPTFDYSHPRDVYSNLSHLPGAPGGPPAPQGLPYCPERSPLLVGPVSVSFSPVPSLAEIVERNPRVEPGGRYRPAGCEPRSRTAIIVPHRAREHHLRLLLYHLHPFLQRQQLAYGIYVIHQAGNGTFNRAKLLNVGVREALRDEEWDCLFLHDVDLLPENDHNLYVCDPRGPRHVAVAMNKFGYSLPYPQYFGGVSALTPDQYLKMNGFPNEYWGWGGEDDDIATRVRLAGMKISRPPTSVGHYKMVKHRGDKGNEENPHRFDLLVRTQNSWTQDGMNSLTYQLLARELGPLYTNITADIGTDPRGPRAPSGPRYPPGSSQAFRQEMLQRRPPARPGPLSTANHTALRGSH
UniProt Q92560: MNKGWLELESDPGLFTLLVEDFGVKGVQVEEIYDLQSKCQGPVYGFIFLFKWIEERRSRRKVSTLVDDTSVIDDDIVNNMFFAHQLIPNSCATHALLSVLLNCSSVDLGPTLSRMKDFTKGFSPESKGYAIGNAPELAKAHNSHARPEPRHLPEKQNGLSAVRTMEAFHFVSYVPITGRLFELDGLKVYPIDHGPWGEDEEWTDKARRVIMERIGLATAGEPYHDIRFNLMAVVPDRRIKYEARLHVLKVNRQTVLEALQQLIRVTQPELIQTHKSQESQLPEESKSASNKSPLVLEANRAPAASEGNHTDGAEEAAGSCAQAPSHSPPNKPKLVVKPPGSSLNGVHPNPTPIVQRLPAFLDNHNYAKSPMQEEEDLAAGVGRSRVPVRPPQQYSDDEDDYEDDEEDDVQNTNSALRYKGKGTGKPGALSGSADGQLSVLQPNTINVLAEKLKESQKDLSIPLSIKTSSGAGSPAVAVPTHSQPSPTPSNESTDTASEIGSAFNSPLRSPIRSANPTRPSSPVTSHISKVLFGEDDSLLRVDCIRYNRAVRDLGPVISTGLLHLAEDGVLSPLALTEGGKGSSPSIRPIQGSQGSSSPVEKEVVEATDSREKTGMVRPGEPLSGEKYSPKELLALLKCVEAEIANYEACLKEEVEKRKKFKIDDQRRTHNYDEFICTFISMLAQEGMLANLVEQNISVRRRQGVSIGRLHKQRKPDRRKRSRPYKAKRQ
UniProt Q6QNY1: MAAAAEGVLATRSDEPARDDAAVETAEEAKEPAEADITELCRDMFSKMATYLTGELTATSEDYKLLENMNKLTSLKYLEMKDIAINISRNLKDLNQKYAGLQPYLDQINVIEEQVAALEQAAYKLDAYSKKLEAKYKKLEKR
UniProt Q6PJG6: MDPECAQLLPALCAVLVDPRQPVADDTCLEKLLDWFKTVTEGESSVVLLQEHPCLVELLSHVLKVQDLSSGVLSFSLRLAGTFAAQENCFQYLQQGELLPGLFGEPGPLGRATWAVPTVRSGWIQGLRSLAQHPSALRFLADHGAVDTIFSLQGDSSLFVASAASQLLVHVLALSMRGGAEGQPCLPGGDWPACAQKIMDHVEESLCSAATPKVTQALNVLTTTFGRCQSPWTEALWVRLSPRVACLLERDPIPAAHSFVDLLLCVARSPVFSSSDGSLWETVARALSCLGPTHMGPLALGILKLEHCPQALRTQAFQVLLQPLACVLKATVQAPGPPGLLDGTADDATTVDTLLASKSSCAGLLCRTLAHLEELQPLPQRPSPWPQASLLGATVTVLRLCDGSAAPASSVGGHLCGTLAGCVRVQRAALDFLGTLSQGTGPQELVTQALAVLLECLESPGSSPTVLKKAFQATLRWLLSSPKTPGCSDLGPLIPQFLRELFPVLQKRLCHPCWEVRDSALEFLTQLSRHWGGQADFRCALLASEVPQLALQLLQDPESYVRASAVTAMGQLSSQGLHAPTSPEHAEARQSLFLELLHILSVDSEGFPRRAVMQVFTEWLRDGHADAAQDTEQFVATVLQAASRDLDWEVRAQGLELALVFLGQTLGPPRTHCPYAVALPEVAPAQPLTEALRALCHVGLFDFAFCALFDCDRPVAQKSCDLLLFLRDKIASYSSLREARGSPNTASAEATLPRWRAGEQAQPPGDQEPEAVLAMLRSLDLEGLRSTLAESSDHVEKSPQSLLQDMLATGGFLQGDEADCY

The source of these data is the supplement of paper PMC10849652.

Compound in the first assay: C1CN(CCC1(CC2=CC=C(C=C2)Cl)N)C3=NC=NC4=C3C=CN4
The assay is described as follows: log2 fold change, soluble protein after heating vs DMSO (PISA); higher = thermal stabilisation; K562 cells, 10 uM, 30 min; active = over 0.2 and 3.5 SD of the protein, either way, in both replicates (recomputed). A digest of the protocol: (§1)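 Thermal stability values are relative to control samples and come from duplicates. They are expressed as log2 fold changes. For measurement, K562 cells (2×10^6 cells/mL) received 10 μM compound for 30 min, and aliquots were heated for 3 min over 48°C-58°C, pooled, and extracted at 4°C in PBS with 0.5% NP-40. Soluble protein, the supernatant after 21,000xg for 90 min, was quantified by TMTpro 16plex LC-MS/MS with equalised channel sums.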
For ATXN2 (UniProt Q99700), the log2 fold change was inactive: 0.004.
Still for that read-out and setting: in the case of BCAR1 isoform 6 (UniProt P56945) it was inactive: 0.112; in that of BPGM (UniProt P07738), inactive: 0.014; in that of BRAP (UniProt Q7Z569), inactive: -0.059.
The same measure, in the same setting: in the case of BAX isoform 2 (UniProt Q07812) it was inactive: 0.042.
On the same count and under the same terms, the figure for BPHL (UniProt Q86WA6) is inactive: 0.182.
On to BCL2L2 isoform 2 (UniProt Q92843), for which the log2 fold change was inactive: -0.101.
For the target BACH1 (UniProt O14867), the log2 fold change is inactive: -0.024.
Still for that read-out and setting: the figure for BAIAP2L1 (UniProt Q9UHR4) is inactive: 0.005; for BCCIP (UniProt Q9P287) it is inactive: 0.114; for BLOC1S4 (UniProt Q9NUP1) it is inactive: 0.01.
Same read-out and setting: the figure for BICD2 isoform 2 (UniProt Q8TD16) is inactive: -0.075; for BAG6 isoform 3 (UniProt P46379) it is inactive: -0.122; for BRIX1 (UniProt Q8TDN6) it is inactive: -0.387.
The same measure, in the same setting: the figure for AUP1 (UniProt Q9Y679) is inactive: -0.018.
Regarding B4GALT1 (UniProt P15291), the log2 fold change is inactive: 0.017.
On the same count and under the same terms, in the case of BIRC2 (UniProt Q13490) it was inactive: 0.058; in that of ATXN7L3B (UniProt Q96GX2), inactive: -0.011; in that of ATXN2L (UniProt Q8WWM7), inactive: 0.023.
Take BORCS5 (UniProt Q969J3): the log2 fold change is inactive: -0.02.
Still for that read-out and setting: the figure for B3GAT3 (UniProt O94766) is inactive: -0.02; for BNIP2 (UniProt J3KN59) it is inactive: 0.019.
Still for that read-out and setting: in the case of B3GNTL1 (UniProt Q67FW5) it was inactive: 0.05.
Consider BCAS2 (UniProt O75934), for which the log2 fold change was inactive: -0.071.
Regarding BLOC1S6 (UniProt Q9UL45), the log2 fold change is inactive: 0.009.
Same read-out and setting: the figure for BLVRA (UniProt P53004) is inactive: 0.027; for BOP1 (UniProt Q14137) it is inactive: 0.036.
On to BCS1L (UniProt Q9Y276), for which the log2 fold change was inactive: 0.048.
Take BRCC3 (UniProt P46736): the log2 fold change was inactive: 0.049.
As to BCCIP isoform 2 (UniProt Q9P287), the log2 fold change was inactive: 0.066.
The same measure, in the same setting: in the case of BOD1L1 (UniProt Q8NFC6) it was inactive: -0.092; in that of B3GNT2 (UniProt Q9NY97), inactive: 0.037; in that of B4GALT3 (UniProt O60512), inactive: -0.012.
Same read-out and setting: the figure for AVL9 (UniProt Q8NBF6) is inactive: 0.019; for BAP1 (UniProt Q92560) it is inactive: -0.088; for BLOC1S2 (UniProt Q6QNY1) it is inactive: 0.181.
Turning to BCAP29 isoform 2 (UniProt Q9UHQ4), the log2 fold change was inactive: -0.022.
On to BRAT1 (UniProt Q6PJG6), for which the log2 fold change was inactive: 0.048.
BORCS6 (UniProt Q96GS4): the log2 fold change was inactive: -0.024.
Turning to AURKA (UniProt O14965), the log2 fold change was inactive: -0.313.

Compound in the next assay: C1COCCN1CCN2C3=CC=CC=C3N=C2NC(=O)C4=CC(=CC=C4)[N+](=O)[O-] [IRAK-1-4 Inhibitor I]
The assay is described as above. The gist of the method:
as §1
With ATXN2 (UniProt Q99700), the log2 fold change was inactive: 0.004.
Consider BCAR1 isoform 6 (UniProt P56945), for which the log2 fold change was inactive: -0.086.
The same measure, in the same setting: the figure for BPGM (UniProt P07738) is inactive: 0; for BRAP (UniProt Q7Z569) it is inactive: -0.032; for BAX isoform 2 (UniProt Q07812) it is inactive: -0.007.
Still for that read-out and setting: the figure for BPHL (UniProt Q86WA6) is inactive: 0.009.
In the case of BCL2L2 isoform 2 (UniProt Q92843), the log2 fold change was inactive: -0.107.
Regarding BACH1 (UniProt O14867), the log2 fold change was inactive: 0.017.
Take BAIAP2L1 (UniProt Q9UHR4): the log2 fold change was inactive: 0.048.
Take BCCIP (UniProt Q9P287): the log2 fold change was inactive: -0.025.
Take BLOC1S4 (UniProt Q9NUP1): the log2 fold change is inactive: -0.013.
Same read-out and setting: the figure for BICD2 isoform 2 (UniProt Q8TD16) is inactive: -0.008; for BAG6 isoform 3 (UniProt P46379) it is inactive: -0.016; for BRIX1 (UniProt Q8TDN6) it is inactive: -0.1.
In the case of AUP1 (UniProt Q9Y679), the log2 fold change was inactive: 0.035.
Regarding B4GALT1 (UniProt P15291), the log2 fold change is inactive: 0.034.
The same measure, in the same setting: in the case of BIRC2 (UniProt Q13490) it was inactive: 0.018.
ATXN7L3B (UniProt Q96GX2): the log2 fold change was inactive: -0.001.
As to ATXN2L (UniProt Q8WWM7), the log2 fold change was inactive: -0.008.
Same read-out and setting: in the case of BORCS5 (UniProt Q969J3) it was inactive: 0.02.
Still for that read-out and setting: in the case of B3GAT3 (UniProt O94766) it was inactive: 0.006.
The same measure, in the same setting: in the case of BNIP2 (UniProt J3KN59) it was inactive: 0.028; in that of B3GNTL1 (UniProt Q67FW5), inactive: 0.007.
Regarding BCAS2 (UniProt O75934), the log2 fold change was inactive: 0.033.
On the same count and under the same terms, in the case of BLOC1S6 (UniProt Q9UL45) it was inactive: -0.058; in that of BLVRA (UniProt P53004), inactive: 0.06.
Same read-out and setting: the figure for BOP1 (UniProt Q14137) is inactive: -0.039.
With BCS1L (UniProt Q9Y276), the log2 fold change is inactive: 0.048.
The same measure, in the same setting: in the case of BRCC3 (UniProt P46736) it was inactive: 0.01; in that of BCCIP isoform 2 (UniProt Q9P287), inactive: 0.013.
Turning to BOD1L1 (UniProt Q8NFC6), the log2 fold change is inactive: -0.01.
Same read-out and setting: the figure for B3GNT2 (UniProt Q9NY97) is inactive: -0.019; for B4GALT3 (UniProt O60512) it is inactive: -0.033.
Consider AVL9 (UniProt Q8NBF6), for which the log2 fold change was inactive: 0.021.
Consider BAP1 (UniProt Q92560), for which the log2 fold change was inactive: -0.038.
Same read-out and setting: the figure for BLOC1S2 (UniProt Q6QNY1) is inactive: -0.034; for BCAP29 isoform 2 (UniProt Q9UHQ4) it is inactive: 0.051; for BRAT1 (UniProt Q6PJG6) it is inactive: 0.002.
On the same count and under the same terms, in the case of BORCS6 (UniProt Q96GS4) it was inactive: 0.023; in that of AURKA (UniProt O14965), inactive: -0.05.
